In publication PMC7618248, “VEL-dependent polymerization maintains the chromatin association of Polycomb proteins for the switch to epigenetic silencing” (Molecular cell, 2025):
Results are given in words; binding and its absence hold for the method and conditions named. Binding seen in cells or lysates may run through a third protein. Here binding means that the protein was enriched with, or labelled near, the bait; the list need not be complete. For some of these results: No binding means not detected with the bait.

By UniProt entry, the sequences of proteins in these tests, tags left out. Where a name states a change or a piece, a line headed by the entry shows the natural chain unless it says otherwise.
UniProt Q9FIE3: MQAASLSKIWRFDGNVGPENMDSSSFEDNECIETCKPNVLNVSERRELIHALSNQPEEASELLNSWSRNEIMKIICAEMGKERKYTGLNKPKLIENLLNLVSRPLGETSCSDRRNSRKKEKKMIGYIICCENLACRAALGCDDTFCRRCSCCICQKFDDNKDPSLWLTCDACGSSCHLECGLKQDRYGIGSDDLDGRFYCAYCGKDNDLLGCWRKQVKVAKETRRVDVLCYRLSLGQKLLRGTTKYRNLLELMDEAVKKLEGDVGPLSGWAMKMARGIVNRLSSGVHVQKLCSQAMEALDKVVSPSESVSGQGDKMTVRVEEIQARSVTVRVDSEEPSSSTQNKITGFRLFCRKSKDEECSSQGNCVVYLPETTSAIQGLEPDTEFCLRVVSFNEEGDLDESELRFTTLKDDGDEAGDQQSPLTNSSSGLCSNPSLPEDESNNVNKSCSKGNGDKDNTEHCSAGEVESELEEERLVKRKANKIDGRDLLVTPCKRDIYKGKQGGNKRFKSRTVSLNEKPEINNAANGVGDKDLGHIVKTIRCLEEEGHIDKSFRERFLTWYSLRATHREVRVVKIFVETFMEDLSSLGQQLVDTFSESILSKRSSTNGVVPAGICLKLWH
UniProt O22467: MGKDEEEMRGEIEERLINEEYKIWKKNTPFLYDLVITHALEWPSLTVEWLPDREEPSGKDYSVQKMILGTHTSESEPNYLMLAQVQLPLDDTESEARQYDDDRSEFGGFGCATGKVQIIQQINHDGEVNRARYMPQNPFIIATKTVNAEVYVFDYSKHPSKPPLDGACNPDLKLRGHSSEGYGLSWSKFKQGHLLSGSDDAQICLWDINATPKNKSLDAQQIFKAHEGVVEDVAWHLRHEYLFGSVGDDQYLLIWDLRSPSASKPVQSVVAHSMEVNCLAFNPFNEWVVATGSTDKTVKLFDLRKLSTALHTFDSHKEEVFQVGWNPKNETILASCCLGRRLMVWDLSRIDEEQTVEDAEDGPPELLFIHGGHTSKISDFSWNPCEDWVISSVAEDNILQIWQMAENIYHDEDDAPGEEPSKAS

How the values were obtained:
Assay in all cases: affinity purification with mass spectrometry; native GFP-Trap co-IP from total protein extracts of seedlings vernalized for 6 weeks; IP buffer 50 mM Tris-HCl pH 7.5, 150 mM NaCl, 0.5% NP-40, 1% Triton-X, with PhosSTOP; enrichment against non-transgenic Col-FRI; n = 3
[1] = target: VIN3-GFP ΔVEL (Arabidopsis thaliana) (UniProt Q9FIE3)
[2] = target: VRN5-SYFP2 ΔVEL (Arabidopsis thaliana) (UniProt Q9LHF5)
[3] = target: T1, VRN5-SYFP2 wild type (Arabidopsis thaliana) (UniProt Q9LHF5)
T1 sequence: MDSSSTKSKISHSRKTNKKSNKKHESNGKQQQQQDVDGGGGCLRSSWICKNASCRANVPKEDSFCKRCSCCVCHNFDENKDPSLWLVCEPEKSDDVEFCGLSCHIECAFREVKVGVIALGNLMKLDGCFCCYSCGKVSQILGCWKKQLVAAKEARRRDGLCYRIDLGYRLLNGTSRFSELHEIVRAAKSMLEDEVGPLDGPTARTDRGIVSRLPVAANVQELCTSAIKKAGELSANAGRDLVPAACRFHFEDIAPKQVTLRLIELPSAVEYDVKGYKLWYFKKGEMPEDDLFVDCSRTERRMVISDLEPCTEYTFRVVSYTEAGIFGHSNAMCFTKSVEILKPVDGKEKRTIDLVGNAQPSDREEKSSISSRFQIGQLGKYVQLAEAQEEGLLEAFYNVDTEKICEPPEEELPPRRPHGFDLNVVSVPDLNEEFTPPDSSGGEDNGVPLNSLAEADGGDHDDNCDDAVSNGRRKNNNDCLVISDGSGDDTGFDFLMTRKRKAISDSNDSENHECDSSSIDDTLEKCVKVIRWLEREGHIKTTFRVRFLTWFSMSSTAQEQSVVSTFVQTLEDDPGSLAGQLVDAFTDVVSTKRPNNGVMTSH

[4] = target: VIN3-GFP wild type (Arabidopsis thaliana) (UniProt Q9FIE3)

MSI1 (from UniProt O22467 1-424) was tested. Which binding [1] did it give?
The binding was “no binding”.

What about the binding [2] of the same molecule?
Its binding is “binds”.

And the binding [3]?
Its binding is “binds”.

With “VIN3 (endogenous) (from UniProt Q9FIE3 1-620)” as the molecule, how does the binding [3] read?
Its binding is “binds”.

B1: FIE (protein, UniProt Q9LT47 1-369)
chain: MSKITLGNESIVGSLTPSNKKSYKVTNRIQEGKKPLYAVVFNFLDARFFDVFVTAGGNRITLYNCLGDGAISALQSYADEDKEESFYTVSWACGVNGNPYVAAGGVKGIIRVIDVNSETIHKSLVGHGDSVNEIRTQPLKPQLVITASKDESVRLWNVETGICILIFAGAGGHRYEVLSVDFHPSDIYRFASCGMDTTIKIWSMKEFWTYVEKSFTWTDDPSKFPTKFVQFPVFTASIHTNYVDCNRWFGDFILSKSVDNEILLWEPQLKENSPGEGASDVLLRYPVPMCDIWFIKFSCDLHLSSVAIGNQEGKVYVWDLKSCPPVLITKLSHNQSKSVIRQTAMSVDGSTILACCEDGTIWRWDVITK
Which binding [1] does the source give for B1 here?
Its binding is “no binding”.

And the binding [2]?
Its binding is “binds”.

What about the binding [3] of the same molecule?
The binding was “binds”.

B2: SWN (protein, UniProt Q9ZSM8 1-856)
chain: MVTDDSNSSGRIKSHVDDDDDGEEEEDRLEGLENRLSELKRKIQGERVRSIKEKFEANRKKVDAHVSPFSSAASSRATAEDNGNSNMLSSRMRMPLCKLNGFSHGVGDRDYVPTKDVISASVKLPIAERIPPYTTWIFLDRNQRMAEDQSVVGRRQIYYEQHGGETLICSDSEEEPEPEEEKREFSEGEDSIIWLIGQEYGMGEEVQDALCQLLSVDASDILERYNELKLKDKQNTEEFSNSGFKLGISLEKGLGAALDSFDNLFCRRCLVFDCRLHGCSQPLISASEKQPYWSDYEGDRKPCSKHCYLQLKAVREVPETCSNFASKAEEKASEEECSKAVSSDVPHAAASGVSLQVEKTDIGIKNVDSSSGVEQEHGIRGKREVPILKDSNDLPNLSNKKQKTAASDTKMSFVNSVPSLDQALDSTKGDQGGTTDNKVNRDSEADAKEVGEPIPDNSVHDGGSSICQPHHGSGNGAIIIAEMSETSRPSTEWNPIEKDLYLKGVEIFGRNSCLIARNLLSGLKTCLDVSNYMRENEVSVFRRSSTPNLLLDDGRTDPGNDNDEVPPRTRLFRRKGKTRKLKYSTKSAGHPSVWKRIAGGKNQSCKQYTPCGCLSMCGKDCPCLTNETCCEKYCGCSKSCKNRFRGCHCAKSQCRSRQCPCFAAGRECDPDVCRNCWVSCGDGSLGEAPRRGEGQCGNMRLLLRQQQRILLGKSDVAGWGAFLKNSVSKNEYLGEYTGELISHHEADKRGKIYDRANSSFLFDLNDQYVLDAQRKGDKLKFANHSAKPNCYAKVMFVAGDHRVGIFANERIEASEELFYDYRYGPDQAPVWARKPEGSKKDDSAITHRRARKHQSH
With B2 as the molecule, how does the binding [1] read?
The binding was “no binding”.

And the binding [2]?
The binding was “binds”.

What about the binding [3] of the same molecule?
The binding was “binds”.

B3: CURLY LEAF (CLF) (protein, UniProt P93831 1-902)
chain: MASEASPSSSATRSEPPKDSPAEERGPASKEVSEVIESLKKKLAADRCISIKKRIDENKKNLFAITQSFMRSSMERGGSCKDGSDLLVKRQRDSPGMKSGIDESNNNRYVEDGPASSGMVQGSSVPVKISLRPIKMPDIKRLSPYTTWVFLDRNQRMTEDQSVVGRRRIYYDQTGGEALICSDSEEEAIDDEEEKRDFLEPEDYIIRMTLEQLGLSDSVLAELASFLSRSTSEIKARHGVLMKEKEVSESGDNQAESSLLNKDMEGALDSFDNLFCRRCLVFDCRLHGCSQDLIFPAEKPAPWCPPVDENLTCGANCYKTLLKSGRFPGYGTIEGKTGTSSDGAGTKTTPTKFSSKLNGRKPKTFPSESASSNEKCALETSDSENGLQQDTNSDKVSSSPKVKGSGRRVGRKRNKNRVAERVPRKTQKRQKKTEASDSDSIASGSCSPSDAKHKDNEDATSSSQKHVKSGNSGKSRKNGTPAEVSNNSVKDDVPVCQSNEVASELDAPGSDESLRKEEFMGETVSRGRLATNKLWRPLEKSLFDKGVEIFGMNSCLIARNLLSGFKSCWEVFQYMTCSENKASFFGGDGLNPDGSSKFDINGNMVNNQVRRRSRFLRRRGKVRRLKYTWKSAAYHSIRKRITEKKDQPCRQFNPCNCKIACGKECPCLLNGTCCEKYCGCPKSCKNRFRGCHCAKSQCRSRQCPCFAADRECDPDVCRNCWVIGGDGSLGVPSQRGDNYECRNMKLLLKQQQRVLLGISDVSGWGAFLKNSVSKHEYLGEYTGELISHKEADKRGKIYDRENCSFLFNLNDQFVLDAYRKGDKLKFANHSPEPNCYAKVIMVAGDHRVGIFAKERILAGEELFYDYRYEPDRAPAWAKKPEAPGSKKDENVTPSVGRPKKLA
How did the binding [1] turn out when B3 was run?
The binding was “no binding”.

What about the binding [2] of the same molecule?
The binding was “binds”.

What about the binding [3] of the same molecule?
Its binding is “binds”.

B4: VEL1 (protein, UniProt Q9SUM4 1-714)
chain: MDSSLDGAAGDSSKCSEMSVDEKRQLVYELSKQSHLAAEVLQAWSRQEILQILCAEMGKERKYTGLTKVKIIETLLKIVSEKNSGECEGKKRDSDCLPIQRNTKRQRKVDNPSRYVIPATNIVTSNNASGSCSSVNTKGESTTIYCKNLACRAVLRQEDSFCRRCSCCICRKYDDNKDPSLWLTCSSDPPFEGESCGFSCHLECAFNTEKSGLGKDKQSEGCCFYCVSCGKANSLLECWKKQLTIAKETRRVEVLCYRLFLVQKLLKSSTKYRNLCEVVDEAVKTLEADVGPLTGLPMKMGRGIVNRLHSGPDVQKLCSSALESLETIATTPPDVAALPSPRSSKMQQDCSYVLSNEISADTATTGSTKIRFEDVNATSLTVVLASNEIPSPPNIVHYSIWHRKVPEKDYPEKSTCTLFIPNTRFVVSGLAPASEYCFKVVSYSGTREMGVDEINVLTRSAEEGANCSSAVERSVSPLTNCSTLSSNPSSVEAESNNDYIVPKKPSSKNEDNNSPSVDESAAKRMKRTTDSDIVQIEKDVEQIVLLDDEEQEAVLDKTESETPVVVTTKSLVGNRNSSDASLPITPFRSDEIKNRQARIEISMKDNCNNGDHSANGGTESGLEHCVKIIRQLECSGHIDKNFRQKFLTWYSLRATSQEIRVVKIFIDTFIDDPMALAEQLIDTFDDRVSIKRSAVGGSGASAVVPSGFCMKLWH
For B4, which binding [1] is on record?
Its binding is “no binding”.

What about the binding [4] of the same molecule?
Its binding is “binds”.

What about the binding [2] of the same molecule?
The binding was “binds”.

What about the binding [3] of the same molecule?
The binding was “binds”.

B5: VRN2 (protein, UniProt Q8W5B1 1-440)
chain: MCRQNCRAKSSPEEVISTDENLLIYCKPVRLYNIFHLRSLGNPSFLPRCLNYKIGAKRKRKSRSTGMVVFNYKDCNNTLQRTEVREDCSCPFCSMLCGSFKGLQFHLNSSHDLFEFEFKLLEEYQTVNVSVKLNSFIFEEEGSDDDKFEPFSLCSKPRKRRQRGGRNNTRRLKVCFLPLDSPSLANGTENGIALLNDGNRGLGYPEATELAGQFEMTSNIPPAIAHSSLDAGAKVILTTEAVVPATKTRKLSAERSEARSHLLLQKRQFYHSHRVQPMALEQVMSDRDSEDEVDDDVADFEDRQMLDDFVDVNKDEKQFMHLWNSFVRKQRVIADGHISWACEVFSRFYEKELHCYSSLFWCWRLFLIKLWNHGLVDSATINNCNTILENCRNTSVTNNNNNSVDHPSDSNTNNNNIVDHPNDIKNKNNVDNKDNNSRDK
Which binding [1] does the source give for B5 here?
Its binding is “no binding”.

And the binding [2]?
Its binding is “binds”.

And the binding [3]?
The binding was “binds”.

B6: VRN5 (endogenous) (protein, UniProt Q9LHF5 1-602)
chain: T1 sequence
What does the source list for B6?
binding [1]: no binding; binding [4]: binds
